# Data published in PubChem BioAssay AID493014 (National Center for Advancing Translational Sciences (NCATS), 2011).
# About 170 (0.05%) of roughly 340,000 compounds were called active. The shares of active, inactive and inconclusive entries below differ from those in the screen. Calls come from the whole dose curve; as a rule, active = well fitted inhibition curve with a large enough effect in the signal ratio, with a control signal flat (not every such curve was filed as active); inconclusive = small, poorly fitted or top-dose-only effect, or effect the other way, or a change in a side signal; inactive = flat fitted curve, though single readings scatter; the % refers to the signal ratio. A potency beside an inconclusive call is a rough fit, not a confirmed value.
# Test: qHTS Assay to Find Inhibitors of Chronic Active B-Cell Receptor Signaling;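 for activity change, negative = inhibition: plate controls were basal doxycycline-induced cells for no effect and cells given 10 µM MG132 for full effect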
# Conditions: ABC-DLBCL IkBa-CBG/CBR reporter, luminescence ratio (green luciferase fused to IkBa over red control in TMD8 lymphoma cells), 4 h; activity change, negative = inhibition: at 46.1 µM (top of the series)
# Procedure, shortened: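 Concentration-response series (up to 46 uM) were applied to TMD8 dual-reporter cells for 4 h at 37C with doxycycline. Green/red ratio, after filter-overlap correction, defined %Activity; red signal alone was normalised to basal cells and zero luminescence.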
# Potency is the fitted concentration of half-maximal effect.
SMILES,Potency,"activity change, negative = inhibition"
CCc1cc(C(=O)Nc2cc(S(=O)(=O)N(C)C)ccc2C)sc1C,"inconclusive: 22.4 µM [falling, single point]",
O=C(NNc1nc2ccc(Cl)cc2s1)c1cc(-c2cccs2)nc2ccccc12,"inconclusive: 20.6 µM [falling, single point]",
COc1ccc(N)c2c1C(=O)c1ccccc1C2=O,"inconclusive: 8.2 µM [rising, partial curve, poor fit]",
NCCCC[C@H](NC(=O)C1CCNCC1)c1nnc(CN)o1,,inactive
CCCC(=O)Nc1ccc(NC(=O)c2cccc(OC)c2)nc1,"inconclusive: 17.8 µM [falling, partial curve]",
CCCn1ccc2c(OCC(=O)NCc3ccc(C)cc3)cccc2c1=O,"inconclusive: 35.5 µM [falling, single point]",
COc1ccc(-c2cc(-c3cc(C)ccc3O)[nH]n2)cc1,"inconclusive: 25.1 µM [falling, single point]",
Cc1ccc(N2CCN(CC3CC=CCC3)CC2)cc1 (stereo not given),,inconclusive: 8.05%
O=C(/C=C/c1ccccc1Cl)Nc1ccc2c(c1)C(=O)NC2=O,"inconclusive: 1.41 µM [falling, full curve, poor fit]",
NS(=O)(=O)c1ccc(NC(=O)COC(=O)c2cn(-c3ccccc3)nc2-c2ccc(F)cc2)cc1,,inconclusive: 6.4%
CC(C)C(=O)N1CCN(c2ccccc2NC(=O)c2ccc(Br)o2)CC1,,inactive
COCCC(=O)N1CCC(Oc2ccc(C(=O)N3CCC(N(C)C)C3)cc2)CC1 (stereo not given),,inconclusive: -1.7%
CCOC(=O)c1c(C)n(C)c2ccc(O)c(CN(C)C)c12,"inconclusive: 35.5 µM [falling, single point]",
O=C(/C=C/c1ccccc1)NC(=S)Nc1ncccn1,,inconclusive: -2.67%
O=C(CNC(=O)c1ccc(F)cc1)N/N=C/c1cc(Br)ccc1OCc1ccccc1,,inconclusive: 4.06%
Cc1ccc(NC(=O)CSCC(=O)Nc2cc(C(F)(F)F)ccc2N2CCOCC2)cc1,,inconclusive: -0.53%
O=C(CNCc1ccccc1)Nc1ccc(Oc2ccccc2)cc1,"inconclusive: 35.5 µM [falling, single point]",
COc1ccc2oc(C(=O)NN3C(C)CCCC3C)c(C)c2c1 (stereo not given),,inactive
CC(=O)Nc1ccc(SC[C@H](c2ccccc2)N2CCN(CCc3ccccc3)CCC2=O)cc1,,inconclusive: -1.99%
O=C(NC(C(=O)O)c1ccccc1)c1ccccc1 (stereo not given),,inconclusive: 14.8%
O=C(NNc1nc2ccccc2s1)c1ccccc1F,"inconclusive: 31.6 µM [falling, single point]",
CN(C)c1ccc(NC(=O)c2sc(SCC(=O)Nc3nccs3)nc2N)cc1,"inconclusive: 2.91 µM [falling, full curve, poor fit]",
CC(C)(Oc1ccc(Cl)cc1)C(=O)NC1=NN(c2ccccc2)C(=O)C1,,inconclusive: 13.4%
CC(=O)c1c(C)oc2ccc(NS(=O)(=O)c3ccc(F)cc3C)cc12,,inconclusive: -0.374%
CCOc1ccc2c(c1)S/C(=C\c1cccs1)C(=O)N2,,inconclusive: 6.35%

SMILES,Potency,"activity change, negative = inhibition"
O=C(CSCc1ccccc1Cl)N1CCN(c2ccc(F)cc2)CC1,,inconclusive: 6.22%
CC(=O)c1cccc(NC(=O)Nc2c(C)nn(C)c2C)c1,,inconclusive: 8.42%
CN1C(C(=O)Nc2ccc(F)cc2F)=CC(c2ccco2)=NS1(=O)=O,,inactive
CCCOc1ccc(N2C(=O)C3ON(c4ccccc4)C(CCC)C3C2=O)cc1 (stereo not given),"inconclusive: 23.1 µM [rising, partial curve, poor fit]",
Cc1cccc(CSc2ncnc3c2cnn3Cc2ccccc2)c1,,inconclusive: 16.4%
CC(C)c1ccc(C2/C(=C(/O)c3ccc(F)cc3)C(=O)C(=O)N2CCCN2CCOCC2)cc1 (stereo not given),,inactive
O=C(NCC1CCCN1S(=O)(=O)c1ccccc1)C(=O)NC1CC1 (stereo not given),,inconclusive: 6.47%
CCn1c(=NC(=O)c2cccc(N3C(=O)CCC3=O)c2)sc2c(OC)ccc(OC)c21,,inconclusive: 0.511%
O=C(Nc1cc(Br)ccc1O)C1CC(c2c(F)cccc2Cl)=NO1 (stereo not given),,inconclusive: 7.89%
CCCCN1C(=N)N([C@@H](CN2CCC[C@H]2CN2C(N)=NC[C@@H]2Cc2ccccc2)C(C)C)C[C@H]1Cc1ccccc1,,inactive
Cc1cc(C)c(S(=O)(=O)N2CCN(C(=O)c3c(C)noc3C)CC2)c(C)c1,,inconclusive: 1.7%
C/C(=N/NC(=O)c1ccc(NC(=O)c2ccc(F)cc2)cc1)c1ccccc1,"inconclusive: 22.4 µM [falling, partial curve, poor fit]",
COCCCNC(=O)CN1C(=O)/C(=C\c2ccc(C)cc2)Sc2ccccc21,,inconclusive: 14.6%
CC(=O)Oc1ccc2cc(-c3ccccc3)c(=O)oc2c1,"inconclusive: 14.1 µM [rising, partial curve, poor fit]",
COc1ccc(N=C2NC(=O)/C(=C/c3ccco3)S2)cc1,,inconclusive: -0.0263%
CCCC(=O)Nc1ccc(N2CCCCC2)cc1,"inconclusive: 23.1 µM [falling, single point]",
COc1ccc(-c2cc3cc(F)ccc3cn2)cc1,,inconclusive: 3.2%
c1ccc(-c2ccc(-n3ccnc3)cc2)cc1,,inconclusive: -2.24%
CCN(CC)S(=O)(=O)c1ccc2oc(C(=O)NCC3COc4ccccc4O3)c(C)c2c1 (stereo not given),,inconclusive: -0.163%
CCN(c1ccc2c(c1)OCO2)S(=O)(=O)c1cc(Br)cc2c1N(C(=O)C1CC1)CC2,"inconclusive: 23.1 µM [rising, partial curve, poor fit]",
CCOC(=O)c1cnc2ccc(C)cc2c1Sc1ccc(F)cc1,"inconclusive: 25.1 µM [falling, partial curve]",
COc1ccc(C2=C(C=Nc3c(C)n(C)n(-c4ccccc4)c3=O)C(c3ccccc3C)c3ccccc3O2)cc1OC (stereo not given),,inconclusive: -4.1%
O=C(c1cc(-c2ccccc2)on1)N1CCCc2ccccc21,,inconclusive: 14.9%
Cc1ccc(C(=O)NC(C)CCc2ccccc2)cc1S(=O)(=O)N1CCOCC1 (stereo not given),,inconclusive: -0.265%
O=C(COC(=O)CCN=C1NS(=O)(=O)c2ccccc21)NNC(=O)c1ccccc1,,inconclusive: -16.2%

# 3 structures from above, sorted by heavy-atom count, low to high.
SMILES,Potency,"activity change, negative = inhibition"
CCOC(=O)c1cnc2ccc(C)cc2c1Sc1ccc(F)cc1,"inconclusive: 25.1 µM [falling, partial curve]",
CCCOc1ccc(N2C(=O)C3ON(c4ccccc4)C(CCC)C3C2=O)cc1 (stereo not given),"inconclusive: 23.1 µM [rising, partial curve, poor fit]",
O=C(COC(=O)CCN=C1NS(=O)(=O)c2ccccc21)NNC(=O)c1ccccc1,,inconclusive: -16.2%

# Next entries.

SMILES,Potency,"activity change, negative = inhibition"
Cc1ccc(Nc2nc(-c3sc(NC(=O)c4ccco4)nc3C)cs2)cc1,"inconclusive: 23.1 µM [falling, single point]",
O=C(c1ccco1)N1CCN(Cc2nc3ccc([N+](=O)[O-])cc3c(=O)n2-c2ccccc2F)CC1,,inconclusive: 21.4%
CC(C)(C)C1CCC(=NNc2nc3ccccc3[nH]2)CC1 (stereo not given),"inconclusive: 35.5 µM [falling, single point]",
CCc1ccccc1N=C1S/C(=C/c2ccccc2OCC(=O)N2CCOCC2)C(=O)N1C,"inconclusive: 20.6 µM [falling, partial curve]",
Cc1cc2nnc(SCC(=O)N3CCCCC3)n2c(N)n1,,inconclusive: 9.25%
Cc1ccc(-c2ccccc2NC(=O)C2C3C=CC(C3)C2C(=O)O)o1 (stereo not given),,inactive
CCOC(=O)c1sc(NC(=O)Nc2ccc(Cl)cc2)nc1C,,inconclusive: 19.9%
O=C(NNC(=O)c1ccccc1OCc1ccccc1)c1ccccc1F,,inconclusive: -10.6%
C=CCNC(=O)c1cccc2c1C(=O)c1ccc(N3CCOCC3)cc1S2(=O)=O,,inconclusive: -18.2%
Cc1ccccc1S(=O)(=O)Cc1ccc(C(=O)NCCN2CCCCC2C)o1 (stereo not given),,inconclusive: -12.5%
CCCCCCC(=O)N(O)C1CC(=O)N(c2ccc(F)cc2)C1=O (stereo not given),"inconclusive: 11.2 µM [falling, partial curve, poor fit]",
CC(/C=C1\SC(=S)N(CC(=O)N2CCN(c3ccccc3)CC2)C1=O)=C\c1ccccc1,,inconclusive: 6.99%
COc1ccccc1N1CCN(c2ncc(C(=O)N3CCN(c4cccc(Cl)c4)CC3)c3ccccc23)CC1,,inactive
O=C(CCCCn1c(=O)c2ccccc2n(Cc2ccc(Cl)cc2)c1=O)NCc1ccco1,,inconclusive: -1.68%
Cc1ccc(-c2nc3ncccc3o2)cc1NC(=O)COc1ccccc1,"inconclusive: 4.11 µM [rising, full curve, poor fit]",
O=C(NC1CCCCCCC1)c1cc(F)c(F)cc1Cl,,inactive
Cn1c2c(c(=O)n(C)c1=O)C(C(F)(F)F)(C(F)(F)F)N=C(c1ccc(Cl)cc1)N2,,inconclusive: 17.9%
CC(C)CN(C(=O)COC(=O)C1=COCCO1)c1c(N)n(Cc2ccccc2)c(=O)[nH]c1=O,,inactive
O=C(/C(=N/N=C/c1ccc(O)c(O)c1)c1ccccc1)c1ccccc1,"inconclusive: 14.6 µM [falling, partial curve]",
CN1CCN(NC(=O)CN2C(=O)S/C(=C\c3c(Cl)cccc3Cl)C2=O)CC1,,inconclusive: -64.7%
Cc1cccc(NC(=O)c2cc(NC(=O)c3ccccc3)ccc2N2CCCCC2)c1,"inconclusive: 0.82 µM [falling, partial curve]",
CCOC(=O)C1=CN(Cc2cccc(-c3cccnc3)c2)S(=O)(=O)N(C)C1C (stereo not given),,inconclusive: -2.29%
O=C(O)c1ccc(NC(=S)Nc2ccccc2)cc1,,inconclusive: -14.6%
Cc1ccc(OCCNC(=O)c2ccc(NC(=O)CC3SC(N4CCCC4)=NC3=O)cc2)cc1 (stereo not given),"inconclusive: 18.4 µM [falling, partial curve, poor fit]",
COC(=O)c1cc2nc(-c3ccc(C)cc3)cc(C(F)(F)F)n2n1,,inactive

# Structural class, those above with a COOH group (3)
SMILES,Potency,"activity change, negative = inhibition"
O=C(NC(C(=O)O)c1ccccc1)c1ccccc1 (stereo not given),,inconclusive: 14.8%
Cc1ccc(-c2ccccc2NC(=O)C2C3C=CC(C3)C2C(=O)O)o1 (stereo not given),,inactive
O=C(O)c1ccc(NC(=S)Nc2ccccc2)cc1,,inconclusive: -14.6%
